Experimental data from US10415054B2, “Designer circuit controlling diet-induced obesity” (ETH ZURICH, priority 2013, dated 2019).
For at least one compound, name, drawing or mass did not settle the structure. Some results were stated once for a whole list of compounds, not compound by compound.

By UniProt entry, the sequences of proteins in these tests, tags left out. Where a name states a change or a piece, a line headed by the entry shows the natural chain unless it says otherwise.
UniProt Q07869: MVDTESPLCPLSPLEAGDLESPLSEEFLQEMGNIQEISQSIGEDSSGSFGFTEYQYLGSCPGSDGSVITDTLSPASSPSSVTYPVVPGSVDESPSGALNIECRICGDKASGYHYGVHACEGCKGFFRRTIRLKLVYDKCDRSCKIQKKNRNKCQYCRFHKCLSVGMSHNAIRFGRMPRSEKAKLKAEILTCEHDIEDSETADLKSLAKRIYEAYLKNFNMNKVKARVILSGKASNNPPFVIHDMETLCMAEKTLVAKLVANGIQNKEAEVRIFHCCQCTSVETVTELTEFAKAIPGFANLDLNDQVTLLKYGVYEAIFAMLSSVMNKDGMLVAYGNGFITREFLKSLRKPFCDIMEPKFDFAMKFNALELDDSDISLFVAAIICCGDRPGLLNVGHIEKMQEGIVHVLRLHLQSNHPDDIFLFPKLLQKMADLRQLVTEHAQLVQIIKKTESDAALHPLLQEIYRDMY

Biological target: T1, lipid-sensing receptor (LSR; TtgR-PPARα) (UniProt Q07869+Q9AIU0)
T1 construct: TtgR (phloretin-responsive repressor of Pseudomonas putida DOT-T1E); expressed in transfected cells; host or cells: HT-1080 (A1, A5; in A5 microencapsulated and implanted into mice); several rodent, primate and human cell lines (A2)
T1 sequence (Q9AIU0+Q07869 with tags, fused parts or gaps): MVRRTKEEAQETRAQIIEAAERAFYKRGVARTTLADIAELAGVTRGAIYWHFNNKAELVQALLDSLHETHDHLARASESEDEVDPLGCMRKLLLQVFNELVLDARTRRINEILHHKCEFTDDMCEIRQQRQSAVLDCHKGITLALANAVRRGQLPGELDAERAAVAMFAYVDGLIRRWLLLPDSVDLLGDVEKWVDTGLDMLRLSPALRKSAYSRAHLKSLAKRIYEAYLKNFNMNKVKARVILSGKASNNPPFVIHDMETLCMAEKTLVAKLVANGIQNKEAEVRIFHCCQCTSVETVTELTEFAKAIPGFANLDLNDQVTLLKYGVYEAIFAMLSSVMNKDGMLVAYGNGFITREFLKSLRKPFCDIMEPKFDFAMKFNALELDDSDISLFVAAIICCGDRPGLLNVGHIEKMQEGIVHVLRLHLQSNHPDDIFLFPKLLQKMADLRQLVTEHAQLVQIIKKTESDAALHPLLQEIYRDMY
Experiment: Fatty acid/fibrate-controlled SEAP expression in pKR135/pMG10-transgenic HT-1080
Assay type: cell-based, human
Details: pKR135/pMG10-transgenic HT-1080, 48 h; for induction of SEAP expression: FIG. 3d
Method: Wild-type Chinese hamster ovary cells (CHO-K1, ATCC: CCL-61) were cultured in ChoMaster® HTS (Cell Culture Technologies GmbH, Gravesano, Switzerland) containing 1% penicillin/streptomycin. All cell types were cultivated at 37° C. in a humidified atmosphere containing 5% CO2. […] After transfection, all cells were cultivated in their specific media containing different inducer concentrations and reporter protein levels were profiled after 48 h unless stated otherwise. […]

| Structure (SMILES) | sensitivity of LSR (SEAP expression) (FIG. 3d,e) | induction of SEAP expression |
| --- | --- | --- |
| CC(C)(Oc1ccc(CCNC(=O)c2ccc(Cl)cc2)cc1)C(=O)O [bezafibrate] | sensitive |  |
| CCCCC/C=C\C/C=C\CCCCCCCC(=O)O [linoleic acid] |  | up to 55 fold |
| CCCCCCCCCCCCCCCC(=O)O [palmitic acid] |  | up to 55 fold |
